Patent publication US8404861B2, “Substituted pyrazolecarboxylic acid anilide derivative or salt thereof, intermediate thereof, agent for agricultural and horticultural use, and use thereof” (Nihon Nohyaku Co., Ltd., priority 2005, dated 2013)
Some of these results come from one statement about several compounds together. At least one compound was matched to its structure with a doubt left.

Tested on: Two-Spotted Spider Mite (Tetranychus urticae)
Assay: Acaricidal action on two-spotted spider mite, leaf disk spray test
Format: in vivo
Details: adult females on kidney bean leaf disk, two days after the treatment, 25° C.

CCCOC(c1ccc(N(COCC)C(=O)c2c(C)nn(C)c2C)cc1CC)(C(F)(F)F)C(F)(F)F [1-480]
acaricidal activity (judged from corrected mortality) (50 ppm spray): A (Corrected mortality 100%)
acaricidal activity (judged from corrected mortality) (500 ppm spray): A (Corrected mortality 100%)

CCCc1cc(N(C(=O)CC)C(=O)c2c(C(F)(F)F)nn(C)c2C)ccc1C(C(F)(F)F)C(F)(F)F [1-410]
acaricidal activity (judged from corrected mortality) (50 ppm spray): A (Corrected mortality 100%)
acaricidal activity (judged from corrected mortality) (500 ppm spray): A (Corrected mortality 100%)

CCCC(=O)N(C(=O)c1c(C)nn(C)c1C)c1ccc(C(OCC)(C(F)(F)F)C(F)(F)F)c(CC(C)C)c1 [1-533]
acaricidal activity (judged from corrected mortality) (50 ppm spray): A (Corrected mortality 100%)
acaricidal activity (judged from corrected mortality) (500 ppm spray): A (Corrected mortality 100%)

CCCc1cc(NC(=O)c2c(C)nn(C)c2C)c(C)cc1C(O)(C(F)(F)F)C(F)(F)F [2-46]
acaricidal activity (judged from corrected mortality) (50 ppm spray): A (Corrected mortality 100%)
acaricidal activity (judged from corrected mortality) (500 ppm spray): A (Corrected mortality 100%)

COC(c1ccc(N(C(=O)c2c(C)nn(C)c2Cl)C(=O)C(C)C)cc1CC(C)C)(C(F)(F)F)C(F)(F)F [1-449]
acaricidal activity (judged from corrected mortality) (50 ppm spray): A (Corrected mortality 100%)
acaricidal activity (judged from corrected mortality) (500 ppm spray): A (Corrected mortality 100%)

C=CCOC(=O)N(C(=O)c1c(C(F)(F)F)nn(C)c1C)c1ccc(C(OC)(C(F)(F)F)C(F)(F)F)c(CCC)c1 [1-343]
acaricidal activity (judged from corrected mortality) (50 ppm spray): A (Corrected mortality 100%)
acaricidal activity (judged from corrected mortality) (500 ppm spray): A (Corrected mortality 100%)

CCCCOCN(C(=O)c1c(C(F)(F)F)nn(C)c1C)c1ccc(C(OC)(C(F)(F)F)C(F)(F)F)c(CC)c1 [1-385]
acaricidal activity (judged from corrected mortality) (50 ppm spray): A (Corrected mortality 100%)
acaricidal activity (judged from corrected mortality) (500 ppm spray): A (Corrected mortality 100%)

CCCc1cc(N(C(=O)OC)C(=O)c2c(C(F)(F)F)nn(C)c2C)ccc1C(C(F)(F)F)C(F)(F)F [1-408]
acaricidal activity (judged from corrected mortality) (50 ppm spray): A (Corrected mortality 100%)
acaricidal activity (judged from corrected mortality) (500 ppm spray): A (Corrected mortality 100%)

CCCc1cc(NC(=O)c2cn(C)nc2C)c(C)cc1C(OC)(C(F)(F)F)C(F)(F)F [2-40]
acaricidal activity (judged from corrected mortality) (50 ppm spray): A (Corrected mortality 100%)
acaricidal activity (judged from corrected mortality) (500 ppm spray): A (Corrected mortality 100%)

CCc1cc(NC(=O)c2c(C(F)(F)F)nn(C)c2C)ccc1C(C(F)(F)F)C(F)(F)F [1-23]
acaricidal activity (judged from corrected mortality) (50 ppm spray): A (Corrected mortality 100%)
acaricidal activity (judged from corrected mortality) (500 ppm spray): A (Corrected mortality 100%)

COC(=O)N(C(=O)c1c(Br)nn(C)c1C)c1ccc(C(OC)(C(F)(F)F)C(F)(F)F)c(CC(C)C)c1 [1-521]
acaricidal activity (judged from corrected mortality) (50 ppm spray): A (Corrected mortality 100%)
acaricidal activity (judged from corrected mortality) (500 ppm spray): A (Corrected mortality 100%)

CCCOC(c1ccc(N(C(=O)c2c(C)nn(C)c2C)C(=O)C(C)(C)C)cc1CC)(C(F)(F)F)C(F)(F)F [1-479]
acaricidal activity (judged from corrected mortality) (50 ppm spray): A (Corrected mortality 100%)
acaricidal activity (judged from corrected mortality) (500 ppm spray): A (Corrected mortality 100%)

CCOC(=O)N(C(=O)c1c(C(F)(F)F)nn(C)c1C)c1ccc(C(OC)(C(F)(F)F)C(F)(F)F)c(CC)c1 [1-32]
acaricidal activity (judged from corrected mortality) (50 ppm spray): A (Corrected mortality 100%)
acaricidal activity (judged from corrected mortality) (500 ppm spray): A (Corrected mortality 100%)

COC(c1ccc(N(COCC(C)C)C(=O)c2c(C(F)(F)F)nn(C)c2C)cc1CC(C)C)(C(F)(F)F)C(F)(F)F [1-447]
acaricidal activity (judged from corrected mortality) (50 ppm spray): A (Corrected mortality 100%)
acaricidal activity (judged from corrected mortality) (500 ppm spray): A (Corrected mortality 100%)

CCOC(c1ccc(NC(=O)c2c(C)nn(C)c2C)cc1CC(C)C)(C(F)(F)F)C(F)(F)F [1-173]
acaricidal activity (judged from corrected mortality) (50 ppm spray): A (Corrected mortality 100%)
acaricidal activity (judged from corrected mortality) (500 ppm spray): A (Corrected mortality 100%)

COC(c1ccc(NC(=O)c2c(C)nn(C(C)C)c2C)cc1CC(C)C)(C(F)(F)F)C(F)(F)F [1-509]
acaricidal activity (judged from corrected mortality) (50 ppm spray): A (Corrected mortality 100%)
acaricidal activity (judged from corrected mortality) (500 ppm spray): A (Corrected mortality 100%)

COC(c1ccc(NC(=O)c2c(C)nn(C)c2C)cc1CCC(C)C)(C(F)(F)F)C(F)(F)F [1-284]
acaricidal activity (judged from corrected mortality) (50 ppm spray): A (Corrected mortality 100%)
acaricidal activity (judged from corrected mortality) (500 ppm spray): A (Corrected mortality 100%)

COC(c1ccc(N(C(=O)c2cnn(C)c2C(F)(F)F)C(=O)C(C)C)cc1CC(C)C)(C(F)(F)F)C(F)(F)F [1-530]
acaricidal activity (judged from corrected mortality) (50 ppm spray): A (Corrected mortality 100%)
acaricidal activity (judged from corrected mortality) (500 ppm spray): A (Corrected mortality 100%)

Cc1c(C(=O)N(C(=O)C(C)C)c2ccc(C(C(F)(F)F)C(F)(F)F)c(CC(C)C)c2)c(C(F)(F)F)nn1C [1-334]
acaricidal activity (judged from corrected mortality) (50 ppm spray): A (Corrected mortality 100%)
acaricidal activity (judged from corrected mortality) (500 ppm spray): A (Corrected mortality 100%)

COC(c1ccc(N(C(=O)c2c(C)nn(C)c2C(F)(F)F)C(=O)C(C)(C)C)cc1CC(C)C)(C(F)(F)F)C(F)(F)F [1-440]
acaricidal activity (judged from corrected mortality) (50 ppm spray): A (Corrected mortality 100%)
acaricidal activity (judged from corrected mortality) (500 ppm spray): A (Corrected mortality 100%)

CCC(=O)N(C(=O)c1c(C)nn(C)c1C)c1ccc(C(OC)(C(F)(F)F)C(F)(F)F)c(CCC(C)C)c1 [1-472]
acaricidal activity (judged from corrected mortality) (50 ppm spray): A (Corrected mortality 100%)
acaricidal activity (judged from corrected mortality) (500 ppm spray): A (Corrected mortality 100%)

CCn1nc(C)c(C(=O)Nc2ccc(C(OC)(C(F)(F)F)C(F)(F)F)c(CC(C)C)c2)c1C [1-464]
acaricidal activity (judged from corrected mortality) (50 ppm spray): A (Corrected mortality 100%)
acaricidal activity (judged from corrected mortality) (500 ppm spray): A (Corrected mortality 100%)

CCCc1cc(N(C(=O)OCC(C)C)C(=O)c2c(C(F)(F)F)nn(C)c2C)ccc1C(OC)(C(F)(F)F)C(F)(F)F [1-78]
acaricidal activity (judged from corrected mortality) (50 ppm spray): A (Corrected mortality 100%)
acaricidal activity (judged from corrected mortality) (500 ppm spray): A (Corrected mortality 100%)

COC(c1ccc(N(Cc2ccc([N+](=O)[O-])cc2)C(=O)c2c(C)nn(C)c2C)cc1CC(C)C)(C(F)(F)F)C(F)(F)F [1-417]
acaricidal activity (judged from corrected mortality) (50 ppm spray): A (Corrected mortality 100%)
acaricidal activity (judged from corrected mortality) (500 ppm spray): A (Corrected mortality 100%)

CCCOC(c1ccc(NC(=O)c2c(C)nn(C)c2C)cc1CC)(C(F)(F)F)C(F)(F)F [1-476]
acaricidal activity (judged from corrected mortality) (50 ppm spray): A (Corrected mortality 100%)
acaricidal activity (judged from corrected mortality) (500 ppm spray): A (Corrected mortality 100%)

COC(c1ccc(N(C(=O)c2cn(C)nc2C(F)(F)F)C(=O)C(C)C)cc1CC(C)C)(C(F)(F)F)C(F)(F)F [1-542]
acaricidal activity (judged from corrected mortality) (50 ppm spray): A (Corrected mortality 100%)
acaricidal activity (judged from corrected mortality) (500 ppm spray): A (Corrected mortality 100%)

COC(c1ccc(N(C(=O)c2ccc(C(F)(F)F)cc2)C(=O)c2c(C)nn(C)c2C)cc1CC(C)C)(C(F)(F)F)C(F)(F)F [1-338]
acaricidal activity (judged from corrected mortality) (50 ppm spray): A (Corrected mortality 100%)
acaricidal activity (judged from corrected mortality) (500 ppm spray): A (Corrected mortality 100%)

CCOC(c1ccc(N(C(C)=O)C(=O)c2c(C)nn(C(C)C)c2C)cc1CC)(C(F)(F)F)C(F)(F)F [1-475]
acaricidal activity (judged from corrected mortality) (50 ppm spray): A (Corrected mortality 100%)
acaricidal activity (judged from corrected mortality) (500 ppm spray): A (Corrected mortality 100%)

COC(c1ccc(NC(=O)c2cnn(C)c2C(F)(F)F)cc1CC(C)C)(C(F)(F)F)C(F)(F)F [1-529]
acaricidal activity (judged from corrected mortality) (50 ppm spray): A (Corrected mortality 100%)
acaricidal activity (judged from corrected mortality) (500 ppm spray): A (Corrected mortality 100%)
